Measurements taken from paper PMC7685970.

Target: T1, Shwachman–Bodian–Diamond syndrome (SBDS) protein (mouse (endogenous in FDC.P1)) (UniProt P70122)
T1 sequence: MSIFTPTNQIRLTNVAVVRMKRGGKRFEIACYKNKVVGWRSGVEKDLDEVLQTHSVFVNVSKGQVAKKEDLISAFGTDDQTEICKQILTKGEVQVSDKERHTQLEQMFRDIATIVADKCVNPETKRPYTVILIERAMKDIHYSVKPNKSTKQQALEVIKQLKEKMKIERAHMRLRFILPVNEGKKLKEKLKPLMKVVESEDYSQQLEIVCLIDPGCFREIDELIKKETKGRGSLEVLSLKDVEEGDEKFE
Assay: co-IP; immunoprecipitation with SBDS antibody from c-KIT/D816V cells, Western blot

binding: binds
Substance: PP2A structural subunit (PP2A-A) (mouse (endogenous in FDC.P1))

These are yes or no findings as the source states them, for the method shown. Binding seen in cells or lysates may run through a third protein. A result given as binding can be weak or reduced; the word gives no strength.
